Measurements reported in patent US20200046763A1, “APPLICATION OF GSK3 INHIBITOR IN PREPARING A DRUG TO TREAT NIEMANN-PICK DISEASE TYPE C” (WUXI HANQIANG PHARMACEUTICAL TECHNOLOGY CO., LTD., priority 2016, published 2020).
Some entries share one result that the patent states for a list of compounds. At least one compound was matched to its structure with a doubt left.

Tested on: NPC1 KO mice
Experiment: Effect of GSK3 inhibitor on NPC1 KO mouse model
Format: in vivo
Conditions: LiCl 85 mg/kg or CHIR99021 20 mg/kg intraperitoneally daily from first week, untreated lifespan no more than 14 weeks
Description: NPC1 KO mice are divided into three groups (a control group, a LiCl treatment group and a CHIR99021 treatment group), with five mice in each group. From the first week after birth, the mice in the LiCl treatment group and the CHIR99021 treatment group are intraperitoneally injected with LiCl (85 mg/kg) and CHIR99021 (20 mg/kg) per day respectively, the mice in the control group are intraperitoneally injected with normal saline, and the survival rate of the mice is continuously observed.
An NPC1 gene knock-out (KO) mouse preparation method: the NPC1 genes are knocked out by CRISPY_Cas9 to obtain NPC1−/−mice.
The NPC mouse model is prepared according to the method of Embodiment II, and LiCl (the dose of 85 mg/kg) or CRIR99021 (the dose of 20 mg/kg) is intraperitoneally injected every day from the first week.
The testing indexes are phenotypes of hematological and neurological systems, as well as symptoms and signs.

Row | SMILES | prolongation of lifespan
1 | Cc1c[nH]c(-c2cnc(NCCNc3ccc(C#N)cn3)nc2-c2ccc(Cl)cc2Cl)n1 [CHIR99021] | 3-6 weeks
2 | [Cl-].[Li+] [LiCl] | 3-6 weeks
